In ChEMBL document CHEMBL4316593 (Eur J Med Chem, 2019):
The source gives many values for each of these; only a part stands here.

Tests used:
Type in all cases: cell-based
Settings in all cases: U-87MG ATCC
[1] = Inhibition of RTK/PI3K/AKT/mTOR signaling in human U87 cells assessed as down regulation of PPP1R15A gene expression at cytotoxic IC50 measured after 48 hrs relative to control
[2] = Inhibition of RTK/PI3K/AKT/mTOR signaling in human U87 cells assessed as down regulation of FUS gene expression at cytotoxic IC50 measured after 48 hrs relative to control
[3] = Inhibition of RTK/PI3K/AKT/mTOR signaling in human U87 cells assessed as down regulation of ZNF680 gene expression at cytotoxic IC50 measured after 48 hrs relative to control
[4] = Inhibition of RTK/PI3K/AKT/mTOR signaling in human U87 cells assessed as down regulation of KIF3B gene expression at cytotoxic IC50 measured after 48 hrs relative to control
[5] = Inhibition of RTK/PI3K/AKT/mTOR signaling in human U87 cells assessed as down regulation of DNAJC6 gene expression at cytotoxic IC50 measured after 48 hrs relative to control
[6] = Inhibition of RTK/PI3K/AKT/mTOR signaling in human U87 cells assessed as down regulation of FBXL18 gene expression at cytotoxic IC50 measured after 48 hrs relative to control
[7] = Inhibition of RTK/PI3K/AKT/mTOR signaling in human U87 cells assessed as down regulation of FBXO6 gene expression at cytotoxic IC50 measured after 48 hrs relative to control
[8] = Inhibition of RTK/PI3K/AKT/mTOR signaling in human U87 cells assessed as down regulation of ZFYVE1 gene expression at cytotoxic IC50 measured after 48 hrs relative to control
[9] = Inhibition of RTK/PI3K/AKT/mTOR signaling in human U87 cells assessed as down regulation of FARP2 gene expression at cytotoxic IC50 measured after 48 hrs relative to control
[10] = Inhibition of RTK/PI3K/AKT/mTOR signaling in human U87 cells assessed as down regulation of PTPN14 gene expression at cytotoxic IC50 measured after 48 hrs relative to control
[11] = Inhibition of RTK/PI3K/AKT/mTOR signaling in human U87 cells assessed as down regulation of TACC2 gene expression at cytotoxic IC50 measured after 48 hrs relative to control
[12] = Inhibition of RTK/PI3K/AKT/mTOR signaling in human U87 cells assessed as down regulation of FAM46A gene expression at cytotoxic IC50 measured after 48 hrs relative to control
[13] = Inhibition of RTK/PI3K/AKT/mTOR signaling in human U87 cells assessed as down regulation of B2M gene expression at cytotoxic IC50 measured after 48 hrs relative to control
[14] = Inhibition of RTK/PI3K/AKT/mTOR signaling in human U87 cells assessed as up regulation of NYAP1 gene expression at cytotoxic IC50 measured after 48 hrs relative to control
[15] = Inhibition of RTK/PI3K/AKT/mTOR signaling in human U87 cells assessed as up regulation of GAL3ST4 gene expression at cytotoxic IC50 measured after 48 hrs relative to control
[16] = Inhibition of RTK/PI3K/AKT/mTOR signaling in human U87 cells assessed as up regulation of FUT3 gene expression at cytotoxic IC50 measured after 48 hrs relative to control
[17] = Inhibition of RTK/PI3K/AKT/mTOR signaling in human U87 cells assessed as up regulation of kringle containing transmembrane protein 2 gene expression at cytotoxic IC50 measured after 48 hrs relative to control
[18] = Inhibition of RTK/PI3K/AKT/mTOR signaling in human U87 cells assessed as up regulation of inositol-3-phosphate synthase 1 gene expression at cytotoxic IC50 measured after 48 hrs relative to control
[19] = Inhibition of RTK/PI3K/AKT/mTOR signaling in human U87 cells assessed as up regulation of pyruvate dehydrogenase kinase 3 gene expression at cytotoxic IC50 measured after 48 hrs relative to control
[20] = Inhibition of RTK/PI3K/AKT/mTOR signaling in human U87 cells assessed as up regulation of CTD small phosphatase 1 gene expression at cytotoxic IC50 measured after 48 hrs relative to control
[21] = Inhibition of RTK/PI3K/AKT/mTOR signaling in human U87 cells assessed as up regulation of sterol regulatory element binding transcription factor 2 gene expression at cytotoxic IC50 measured after 48 hrs relative to control
[22] = Inhibition of RTK/PI3K/AKT/mTOR signaling in human U87 cells assessed as up regulation of NDC1 transmembrane nucleoporin gene expression at cytotoxic IC50 measured after 48 hrs relative to control
[23] = Inhibition of RTK/PI3K/AKT/mTOR signaling in human U87 cells assessed as up regulation of stearoyl-CoA desaturase 5 gene expression at cytotoxic IC50 measured after 48 hrs relative to control
[24] = Inhibition of RTK/PI3K/AKT/mTOR signaling in human U87 cells assessed as up regulation of coiled-coil domain containing 85C gene expression at cytotoxic IC50 measured after 48 hrs relative to control
[25] = Inhibition of RTK/PI3K/AKT/mTOR signaling in human U87 cells assessed as up regulation of cyclin B1 interacting protein 1 gene expression at cytotoxic IC50 measured after 48 hrs relative to control
[26] = Inhibition of RTK/PI3K/AKT/mTOR signaling in human U87 cells assessed as up regulation of adenosylhomocysteinase gene expression at cytotoxic IC50 measured after 48 hrs relative to control
[27] = Inhibition of RTK/PI3K/AKT/mTOR signaling in human U87 cells assessed as up regulation of HK1 gene expression at cytotoxic IC50 measured after 48 hrs relative to control
[28] = Inhibition of RTK/PI3K/AKT/mTOR signaling in human U87 cells assessed as up regulation of INF2 gene expression at cytotoxic IC50 measured after 48 hrs relative to control
[29] = Inhibition of RTK/PI3K/AKT/mTOR signaling in human U87 cells assessed as up regulation of JPT2 gene expression at cytotoxic IC50 measured after 48 hrs relative to control
[30] = Inhibition of RTK/PI3K/AKT/mTOR signaling in human U87 cells assessed as up regulation of PGM1 gene expression at cytotoxic IC50 measured after 48 hrs relative to control
[31] = Inhibition of RTK/PI3K/AKT/mTOR signaling in human U87 cells assessed as up regulation of CLSTN1 gene expression at cytotoxic IC50 measured after 48 hrs relative to control
[32] = Inhibition of RTK/PI3K/AKT/mTOR signaling in human U87 cells assessed as up regulation of EIF3H gene expression at cytotoxic IC50 measured after 48 hrs relative to control

**Q.** Which log2FC [1] does the source give for `CC(=O)C(=NNc1ccccc1C#N)C(C)=O` here?
**A.** -1.89

**Q.** And the log2FC [2]?
**A.** -1.52

**Q.** And the log2FC [3]?
**A.** -1.35

**Q.** And the log2FC [4]?
**A.** -1.34

**Q.** And the log2FC [5]?
**A.** -1.28

**Q.** What about the log2FC [6] of the same compound?
**A.** -1.26

**Q.** What about the log2FC [7] of the same compound?
**A.** -1.16

**Q.** And the log2FC [8]?
**A.** -1.05

**Q.** And the log2FC [9]?
**A.** -1.04

**Q.** And the log2FC [10]?
**A.** -0.791

**Q.** And the log2FC [11]?
**A.** -0.748

**Q.** What about the log2FC [12] of the same compound?
**A.** -0.72

**Q.** And the log2FC [13]?
**A.** -0.468

**Q.** What about the log2FC [14] of the same compound?
**A.** 2.31

**Q.** What about the log2FC [15] of the same compound?
**A.** 2.08

**Q.** What about the log2FC [16] of the same compound?
**A.** 2

**Q.** And the log2FC [17]?
**A.** 1.53

**Q.** And the log2FC [18]?
**A.** 1.32

**Q.** What about the log2FC [19] of the same compound?
**A.** 1.25

**Q.** And the log2FC [20]?
**A.** 1.25

**Q.** What about the log2FC [21] of the same compound?
**A.** 0.972

**Q.** And the log2FC [22]?
**A.** 0.885

**Q.** What about the log2FC [23] of the same compound?
**A.** 0.814

**Q.** And the log2FC [24]?
**A.** 0.813

**Q.** What about the log2FC [25] of the same compound?
**A.** 0.803

**Q.** What about the log2FC [26] of the same compound?
**A.** 0.783

**Q.** And the log2FC [27]?
**A.** 0.635

**Q.** And the log2FC [28]?
**A.** 0.588

**Q.** And the log2FC [29]?
**A.** 0.567

**Q.** What about the log2FC [30] of the same compound?
**A.** 0.542

**Q.** And the log2FC [31]?
**A.** 0.429

**Q.** And the log2FC [32]?
**A.** 0.405
